Experimental data as given in the supplement of paper PMC10689618.
Some of the results follow. Repeats are few or missing, and single values can be far off.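 Labelled rat cortical synaptosomes were engulfed by primary human fetal astrocytes. Engulfment equaled a red/green ratio, corrected for calcein live-cell signal and normalized to the plate median. Compounds were toxic when calcein dropped over 30%, and reduced phagocytosis when below 70% of the median above 5 µM.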

Legend:
Human fetal astrocytes [1] = experiment: loss of total cells relative to no-compound high-control median (toxicity); higher = more toxic (fewer cells); conditions: 24 h
Human fetal astrocytes [2] = experiment: synaptosome phagocytosis (pHrodo/calcein intensity ratio) relative to plate median of data wells; higher = more phagocytosis; conditions: 24 h

Row | SMILES | loss of total cells (Human fetal astrocytes [1]; 1.39 µM) [%] | loss of total cells (Human fetal astrocytes [1]; 2.78 µM) [%] | loss of total cells (Human fetal astrocytes [1]; 5.56 µM) [%] | loss of total cells (Human fetal astrocytes [1]; 11.11 µM) [%] | loss of total cells (Human fetal astrocytes [1]; 22.22 µM) [%] | synaptosome phagocytosis (Human fetal astrocytes [2]; 1.39 µM) [%] | synaptosome phagocytosis (Human fetal astrocytes [2]; 2.78 µM) [%] | synaptosome phagocytosis (Human fetal astrocytes [2]; 5.56 µM) [%] | synaptosome phagocytosis (Human fetal astrocytes [2]; 11.11 µM) [%] | synaptosome phagocytosis (Human fetal astrocytes [2]; 22.22 µM) [%]
1 | C[C@]12CC[C@H]3C(=CCc4cc(O)ccc43)[C@@H]1CCC2=O | 5.6 | 3.1 | -3.5 | 1.4 | -7 | 87.1 | 97.8 | 109 | 103 | 107
2 | O=C(Nc1ccccc1)c1ccccc1O | -10 | -25.9 | -9.3 | -32.8 | 4.5 | 110 | 101 | 107 | 122 | 107
3 | CN1CC(=O)N2[C@H](c3ccc4c(c3)OCO4)c3[nH]c4ccccc4c3C[C@@H]2C1=O | -36.3 | -4.8 | -5.6 | 10.8 | 0.3 | 72.6 | 81 | 90.1 | 115 | 75.7
4 | COC1=C(OC)C(=O)C(C/C=C(\C)CC/C=C(\C)CC/C=C(\C)CC/C=C(\C)CC/C=C(\C)CC/C=C(\C)CC/C=C(\C)CC/C=C(\C)CC/C=C(\C)CCC=C(C)C)=C(C)C1=O | -25.4 | 0.4 | -5.9 | 8.8 | 8.9 | 94 | 78.4 | 102 | 102 | 126
5 | N=C(N)NC(=N)N1CCOCC1 | 23.5 | 21.3 | 26.1 | -9.6 | 16.7 | 137 | 124 | 136 | 83.5 | 149
6 | C[C@]12CCC(=O)C=C1C=C[C@@H]1[C@@H]2CC[C@@]2(C)[C@H]1CC[C@@]21CCC(=O)O1 | -0.8 | -5.2 | 6.9 | -10.2 | 10.8 | 110 | 99.3 | 91.5 | 99.4 | 84.9
7 | OC1(c2ccc(Cl)c(C(F)(F)F)c2)CCN(CCCC(c2ccc(F)cc2)c2ccc(F)cc2)CC1 | 2.5 | 8.8 | 68.2 | 82 | 104 | 69.6 | 54.9 | 21.2 | 36.3 | 0
8 | OCCOCCN1CCN(C(c2ccccc2)c2ccc(Cl)cc2)CC1 (stereo not given) | 16.3 | -9.2 | -4.9 | 17 | -5.2 | 92.9 | 99.3 | 109 | 69.3 | 45.5
9 | C=CCCCCCCCCC(=O)O | 11.3 | -46 | -12.4 | -14.1 | 0.3 | 138 | 104 | 118 | 85.9 | 99.5
10 | Cc1cc2nc3c(=O)[nH]c(=O)nc-3n(CC(O)C(O)C(O)COP(=O)(O)O)c2cc1C (stereo not given) | -22.8 | 2.7 | 39.7 | 7.7 | 24.8 | 87.8 | 82.5 | 111 | 92.9 | 129
11 | CC(=O)O[C@H]1CC[C@@]2(C)[C@@H](CC[C@@H]3[C@@H]2CC(=O)[C@]2(C)[C@@H]4[C@H](C[C@@H]32)O[C@]2(CC[C@@H](C)CO2)[C@H]4C)C1 | -23.6 | -2.7 | -19.8 | -11 | -17.4 | 98.1 | 94.2 | 102 | 87.6 | 122
12 | C=C(C)[C@@H]1CC[C@]2(C)CC[C@]3(C)[C@H](CC[C@@H]4[C@@]5(C)CC[C@H](O)C(C)(C)[C@@H]5CC[C@]43C)[C@@H]12 | -33.6 | -3.2 | -11 | 15.5 | 14.1 | 87.5 | 106 | 102 | 130 | 129
13 | N[C@@H](CCC(=O)N[C@@H](CS)C(=O)NCC(=O)O)C(=O)O | 6.1 | 6.9 | 2.9 | -4.6 | -9.8 | 119 | 122 | 110 | 126 | 116
14 | CCN(CC)CCc1nc(-c2ccccc2)no1 | 23.5 | 11.9 | 9.4 | 3.8 | 17.4 | 116 | 124 | 144 | 126 | 95
15 | CN[C@@H]1[C@H](O)[C@H](NC)[C@H]2O[C@@]3(O)C(=O)C[C@@H](C)O[C@H]3O[C@@H]2[C@H]1O | 16.9 | -3.1 | -8.4 | 14.7 | -35 | 120 | 100 | 84.4 | 107 | 88.2
16 | Cn1c([N+](=O)[O-])cnc1COC(N)=O | -13.3 | -0.9 | -2.7 | -26.6 | 5.7 | 117 | 110 | 93.8 | 111 | 114
17 | O=C(O)CCNC(=O)c1ccccc1 | 16.2 | 24.2 | 15.2 | 18.8 | 8.3 | 106 | 139 | 86.1 | 139 | 90.6

As entered above.
C[C@]12CC[C@H]3C(=CCc4cc(O)ccc43)[C@@H]1CCC2=O | loss of total cells (Human fetal astrocytes [1]; 22.22 µM) [%]: -7
COC1=C(OC)C(=O)C(C/C=C(\C)CC/C=C(\C)CC/C=C(\C)CC/C=C(\C)CC/C=C(\C)CC/C=C(\C)CC/C=C(\C)CC/C=C(\C)CC/C=C(\C)CCC=C(C)C)=C(C)C1=O | synaptosome phagocytosis (Human fetal astrocytes [2]; 5.56 µM) [%]: 102
